Measured data: PubChem BioAssay AID602196 (INSERM, 2012)
Here is a random part of about 23,000 deposited reagents. Of all reagents, 455 (2%) were called active. 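Active includes both protection and sensitisation; some change values fall well beyond the stated -50 to +50 range.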 Further read-outs or replicates are left out here. Not given: the amount of reagent.

- Test: 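Genes whose knock-down alters cisplatin killing of lung cancer cells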
- System: human A549 lung cancer cells
- Reagent: siRNA pair against human genes
- Timing: 48 h transfection before cisplatin; time from cisplatin to read-out not stated
- Challenge: cisplatin at a dose killing half of control-siRNA cells; exact dose and duration not given
- Measurement: 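Shift in cisplatin death relative to control siRNA, from -50 (all cells die) to +50 (no cells die); siRNAs harmful on their own scored 0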
- Scale: two-siRNA summed score (-2 to +2): higher = both siRNAs protect from cisplatin killing; -2 means both sensitise
- Call rule: 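siRNAs harmful alone (LDH or WST-1) get 0; others get +1 for less and -1 for more cisplatin killing; genes are active when the two siRNAs give the same sign, summing to ±2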
- Calls: active = both siRNAs shift cisplatin killing the same way; inactive = no consistent shift, or siRNA harmful alone

Knock-down of LOC342865 resulted in: two-siRNA summed score (-2 to +2) = 0; inactive. Depletion of TRH resulted in: two-siRNA summed score (-2 to +2) = 0; inactive. Depletion of ZNF485 resulted in: two-siRNA summed score (-2 to +2) = 0; inactive. After knock-down of DBF4B, the screen gave two-siRNA summed score (-2 to +2) = 0; inactive. GPR171 gave two-siRNA summed score (-2 to +2) = 0; inactive. Against ZDHHC9 the deposit lists two-siRNA summed score (-2 to +2) = -2; active.

Knock-down of NSA2 came out at: two-siRNA summed score (-2 to +2) = 1; inactive. LOC342970 gave two-siRNA summed score (-2 to +2) = 1; inactive. For INTS8 the deposit lists two-siRNA summed score (-2 to +2) = 0; inactive. After knock-down of LOC389248, the record shows two-siRNA summed score (-2 to +2) = 0; inactive. Silencing of BRSK1 came out at: two-siRNA summed score (-2 to +2) = -1; inactive. XTBD1 showed two-siRNA summed score (-2 to +2) = 0; inactive.

Records listed so far whose target name starts with L or l:
LOC342865: two-siRNA summed score (-2 to +2) = 0; outcome = inactive
LOC342970: two-siRNA summed score (-2 to +2) = 1; outcome = inactive
LOC389248: two-siRNA summed score (-2 to +2) = 0; outcome = inactive

The results go on:
After knock-down of CPED1 the results were two-siRNA summed score (-2 to +2) = 0; inactive. For SMC5, the values are two-siRNA summed score (-2 to +2) = 0; inactive. Depletion of SLC16A4 resulted in: two-siRNA summed score (-2 to +2) = 0; inactive. REPS2 gave two-siRNA summed score (-2 to +2) = 0; inactive. MOCS2 showed two-siRNA summed score (-2 to +2) = -1; inactive. With knock-down of VN1R10P the results were two-siRNA summed score (-2 to +2) = 2; active.

For MORN2, the values are two-siRNA summed score (-2 to +2) = 1; inactive. After knock-down of SOX1 the results were two-siRNA summed score (-2 to +2) = 1; inactive. BMERB1 gave two-siRNA summed score (-2 to +2) = 0; inactive.
